US20140179677A1, “THERAPEUTIC AGENT FOR ECTOPIC PREGNANCY” (AKITA UNIVERSITY, priority 2010, published 2014)
Some results were stated once for a whole list of compounds, not compound by compound.

Test system: human placental villous explants (villous cytotrophoblasts)
Experiment: Human villous explant culture: trophoblast proliferation and viability (H&E, PCNA, Ki-67, glucose utilization)
Assay type: cell-based
Conditions: TrkB ectodomain 10 μg/ml, K252a 1,000 nM; 48 h medium sample, 3% O2
Experimental: Preparation and cultivation of human villous explants of first trimester placentas were performed as described (Non-patent Document 13). Briefly, human placental villi at 6-8 weeks of gestation were aseptically dissected to remove decidual tissue and fetal membranes. Small pieces of placental villi (8 mg wet weight) were dissected under a stereomicroscope (Leica Microsystems, Tokyo, Japan). Each villous piece was put on Millicell-CM culture dish inserts (12-mm diameter) (Millipore, Bedford, Mass.) that were precoated with 200 μl of undiluted Matrigel Growth Factor Reduced (BD Bioscience pharmingen) and placed in 24-well culture plates. […]
At the end of cultures, some villous explants including EVT outgrowth were subjected to RNA extraction for real-time RT-PCR to quantify the transcript levels of human leukocyte antigen-G (HLA-G). Glucose utilization by the villous explants was calculated from the difference between glucose concentration in fresh medium and that in the conditioned medium after 48 h of culture using an enzymatic assay (Mitsubishi BCL, Tokyo, Japan). The results were expressed as mg per 0.1 g wet weight tissue/48 h.
In some experiments, morphological changes in villous explants were evaluated by hematoxylin and eosin (H&E) staining. […]

## TrkB ectodomain: soluble ectodomain of TrkB (R&D Systems), binds BDNF and competingly suppresses BDNF/TrkB binding
  glucose utilization by villous explants, inhibition: > 94%
